The source of these data is US20100029012A1, “Method for identifying modulators of the NRF2-KEAP1-AREP pathway” (priority 2006, published 2010).

Protein sequences, listed by entry. Tags and fused reporters are not part of them. Residues count along the entry.
UniProt Q14145, residues 322-609: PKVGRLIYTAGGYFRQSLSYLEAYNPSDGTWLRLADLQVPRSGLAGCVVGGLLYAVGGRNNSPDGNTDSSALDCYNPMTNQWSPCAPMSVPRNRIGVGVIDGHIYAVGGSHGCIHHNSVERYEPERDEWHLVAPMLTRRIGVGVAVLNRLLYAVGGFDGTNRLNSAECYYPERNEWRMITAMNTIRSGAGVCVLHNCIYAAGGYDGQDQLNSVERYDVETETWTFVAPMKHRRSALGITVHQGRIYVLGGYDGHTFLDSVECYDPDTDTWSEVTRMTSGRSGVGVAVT

Results are given in words; binding and its absence hold for the method and conditions named. Some binding calls cover weakened binding; strength is not graded here.

Assay [1] concerns the target T1, His-tagged Keap1-kelch domain polypeptide (Homo sapiens, UniProt Q14145). Description: ion-based radioligand competition assay, His-tagged Keap1-kelch domain polypeptide on nickel-coated plates, 3H-labeled Peptide 2 as tracer. (In general: Loss of bound radioactivity is the signal in a displacement assay; it reports binding, not function.)
Assay [2] has as its target T1, His-tagged Keap1-kelch domain polypeptide. The assay is described as follows: antibody-based radioligand competition assay, His-tagged Keap1-kelch domain polypeptide captured by mouse anti-His antibody on anti-mouse IgG plates, 3H-labeled Peptide 2 as tracer.

B1: Nrf2 Peptide 2 (unlabeled), NH2-…-OH (peptide)
peptide: QLDEETGEFLPIQ
For B1, the binding result in assay [1] and in assay [2] was “binds” in each case.
